No constants are given. Whether binding was seen depends on the method and setting. In cells and extracts the contact can be indirect. Binding calls can cover weak binding; strength is not graded here. Sequences can lack the tags named with a protein.
Target: T1, Arabidopsis thaliana LONESOME HIGHWAY (AtLHW), BiFC fusion (Arabidopsis thaliana) (UniProt Q9XIN0)
T1 sequence: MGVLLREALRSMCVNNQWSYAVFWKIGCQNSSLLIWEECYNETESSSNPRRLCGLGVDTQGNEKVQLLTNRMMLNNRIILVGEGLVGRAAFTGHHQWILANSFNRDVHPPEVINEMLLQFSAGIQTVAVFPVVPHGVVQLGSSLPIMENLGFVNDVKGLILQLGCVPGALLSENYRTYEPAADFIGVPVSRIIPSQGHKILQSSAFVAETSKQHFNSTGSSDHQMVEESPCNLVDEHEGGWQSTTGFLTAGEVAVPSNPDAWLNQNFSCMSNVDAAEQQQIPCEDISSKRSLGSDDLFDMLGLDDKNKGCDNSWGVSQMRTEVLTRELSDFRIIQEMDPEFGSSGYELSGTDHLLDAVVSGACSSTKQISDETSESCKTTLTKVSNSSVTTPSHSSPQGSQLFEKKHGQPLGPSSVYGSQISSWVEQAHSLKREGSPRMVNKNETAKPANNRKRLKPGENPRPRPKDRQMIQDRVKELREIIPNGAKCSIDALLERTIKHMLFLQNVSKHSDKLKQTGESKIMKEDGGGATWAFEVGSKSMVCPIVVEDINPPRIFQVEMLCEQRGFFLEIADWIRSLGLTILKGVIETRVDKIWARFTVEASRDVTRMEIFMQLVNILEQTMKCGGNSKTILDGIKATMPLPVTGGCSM
Experiment: split reporter

In the case of “Marchantia polymorpha TMO5 ortholog (MpTMO5), BiFC fusion”, the binding is reported as “binds”.
